US20030044413A1, “Methods of limiting apoptosis of cells” (Regents of the University of Minnesota, priority 1998, published 2003)
At least one structure is not confirmed: it was looked up by name or label, or the drawing left a doubt.

System: caspase 3
Assay: Caspase 3 activity in cytosolic extracts of primary hepatocytes
Assay type: cell-based, rat
Settings: hepatocytes treated with the inducers of apoptosis

C[C@H](CCC(=O)O)[C@H]1CC[C@H]2[C@@H]3[C@@H](O)C[C@@H]4C[C@H](O)CC[C@]4(C)[C@H]3CC[C@]12C [UDCA, ursodeoxycholic acid]
effect on increase in caspase-3 activity: significantly prevented
